According to article PMC7650749:
No constants are given. Whether binding was seen depends on the method and setting. Binding seen in cells or lysates may run through a third protein. Some entries that bind do so weakly or less than the wild type.

By UniProt entry, the sequences of proteins in these tests, tags left out.
UniProt P63159: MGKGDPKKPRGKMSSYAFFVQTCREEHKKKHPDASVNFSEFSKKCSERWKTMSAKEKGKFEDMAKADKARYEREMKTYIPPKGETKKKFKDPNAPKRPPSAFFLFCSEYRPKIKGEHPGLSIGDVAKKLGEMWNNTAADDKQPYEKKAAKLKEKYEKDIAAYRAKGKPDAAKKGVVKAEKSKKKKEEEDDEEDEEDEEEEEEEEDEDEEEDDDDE

Target: T1, sirtuin 1 (Sirt-1) (rat (endogenous in NRK-52E))
T1 sequence: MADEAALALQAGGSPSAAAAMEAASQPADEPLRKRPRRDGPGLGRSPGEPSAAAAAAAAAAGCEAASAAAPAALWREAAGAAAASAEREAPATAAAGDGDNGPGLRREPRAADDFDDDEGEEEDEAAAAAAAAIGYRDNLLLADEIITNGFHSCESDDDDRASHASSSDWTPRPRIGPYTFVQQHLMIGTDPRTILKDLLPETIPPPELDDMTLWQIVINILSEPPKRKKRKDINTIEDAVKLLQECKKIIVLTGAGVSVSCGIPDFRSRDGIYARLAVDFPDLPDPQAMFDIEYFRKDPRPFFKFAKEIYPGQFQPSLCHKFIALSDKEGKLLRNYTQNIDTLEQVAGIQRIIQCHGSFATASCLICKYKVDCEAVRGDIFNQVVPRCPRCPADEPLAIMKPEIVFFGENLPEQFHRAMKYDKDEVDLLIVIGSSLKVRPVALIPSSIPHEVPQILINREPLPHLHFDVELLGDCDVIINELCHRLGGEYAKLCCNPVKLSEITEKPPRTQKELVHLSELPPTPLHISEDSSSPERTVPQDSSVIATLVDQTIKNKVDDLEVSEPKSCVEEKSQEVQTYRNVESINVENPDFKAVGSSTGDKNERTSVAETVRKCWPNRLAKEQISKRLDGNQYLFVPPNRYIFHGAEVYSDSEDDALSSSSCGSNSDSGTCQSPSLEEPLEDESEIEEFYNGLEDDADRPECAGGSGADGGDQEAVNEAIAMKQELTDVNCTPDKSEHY
Assay: co-IP; anti-Sirt-1 or anti-HMGB1 antibody, 24 h at 4 °C, protein A magnetic beads, Western blot; endogenous proteins in the nucleus of NRK-52E cells; cells untreated or treated with AGE (100 μg/mL), fucoidan (100 μg/mL), EX527 (200 nM)

- binding: binds
Substance: high mobility group box 1 (HMGB1) (from UniProt P63159 1-215)
